The values that follow come from article PMC7430099.

By UniProt entry, the sequences of proteins in these tests, tags left out.
UniProt P35351: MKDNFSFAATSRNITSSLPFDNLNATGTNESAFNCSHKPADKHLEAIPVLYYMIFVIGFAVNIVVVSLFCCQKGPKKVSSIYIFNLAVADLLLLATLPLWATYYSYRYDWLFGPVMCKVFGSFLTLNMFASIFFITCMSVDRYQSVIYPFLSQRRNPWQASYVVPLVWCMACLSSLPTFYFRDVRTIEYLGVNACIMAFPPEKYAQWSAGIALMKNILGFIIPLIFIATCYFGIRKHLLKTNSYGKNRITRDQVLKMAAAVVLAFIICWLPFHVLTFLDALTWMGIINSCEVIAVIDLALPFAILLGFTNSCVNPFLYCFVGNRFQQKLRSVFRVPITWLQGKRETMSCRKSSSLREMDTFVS

Changes are numbered by the printed parent chain. These are yes or no findings as the source states them, for the method shown. In cells and extracts the contact can be indirect. A result given as binding can be weak or reduced; the word gives no strength.

The target of test [1] is T1, AT2 receptor, endogenous in mouse striatal primary cultures (mouse (endogenous in primary striatal microglia)) (UniProt P35374).
T1 sequence: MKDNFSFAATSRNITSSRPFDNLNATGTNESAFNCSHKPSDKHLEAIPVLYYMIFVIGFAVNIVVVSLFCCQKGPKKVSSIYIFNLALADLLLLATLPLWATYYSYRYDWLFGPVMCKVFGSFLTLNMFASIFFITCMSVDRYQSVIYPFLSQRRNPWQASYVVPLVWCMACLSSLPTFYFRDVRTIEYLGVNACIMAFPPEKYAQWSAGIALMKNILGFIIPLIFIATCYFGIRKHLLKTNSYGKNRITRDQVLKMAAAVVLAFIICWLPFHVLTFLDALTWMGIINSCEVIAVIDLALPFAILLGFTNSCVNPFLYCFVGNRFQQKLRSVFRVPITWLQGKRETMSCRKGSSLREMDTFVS
The test can be described thus: proximity ligation; in situ PLA on fixed, permeabilised mouse striatal primary microglia, resting or activated with LPS + IFN-γ; mouse anti-AT1R and rabbit anti-AT2R primary antibodies, Duolink probes, confocal microscopy.

For test [2], the target named is T2, AT2 receptor, endogenous in rat striatum (rat (endogenous in striatal sections)) (UniProt P35351).
T2 sequence: T1 sequence with R18L, S40A, L88V, G352S
The test can be described thus: proximity ligation; in situ PLA on 40-μm striatal sections of rats: non-lesioned, 6-OH-dopamine lesioned, lesioned plus L-DOPA dyskinetic, lesioned plus L-DOPA non-dyskinetic; mouse anti-AT1R and rabbit anti-AT2R primary antibodies, Duolink probes, confocal microscopy.

For the substance “AT1 receptor, endogenous in mouse striatal primary cultures”, the binding result in test [1] is on record as “binds”.
Consider “AT1 receptor, endogenous in rat striatum”, for which, in test [2], the binding result is listed as “binds”.
